No constants are given. Whether binding was seen depends on the method and setting. In cells and extracts the contact can be indirect. A result given as binding can be weak or reduced; the word gives no strength. For some assays here: Tags and fused reporters may be left off the sequences shown. Values belong to the molecule of their own block, whether it stands above or below them.
Assays:
Exo2-TAP (S. pombe) = target: T1, Exo2-TAP (S. pombe) (UniProt P40383); assay: co-IP; fission yeast cell extracts; TAP-tagged protein immunoprecipitated with monoclonal antibodies against protein A; Western blot with peroxidase anti-peroxidase complexes (TAP) and anti-myc; also after treating 250 ul of extract with 200 units of RNase I for 15 minutes at room temperature (interaction kept)
T1 sequence: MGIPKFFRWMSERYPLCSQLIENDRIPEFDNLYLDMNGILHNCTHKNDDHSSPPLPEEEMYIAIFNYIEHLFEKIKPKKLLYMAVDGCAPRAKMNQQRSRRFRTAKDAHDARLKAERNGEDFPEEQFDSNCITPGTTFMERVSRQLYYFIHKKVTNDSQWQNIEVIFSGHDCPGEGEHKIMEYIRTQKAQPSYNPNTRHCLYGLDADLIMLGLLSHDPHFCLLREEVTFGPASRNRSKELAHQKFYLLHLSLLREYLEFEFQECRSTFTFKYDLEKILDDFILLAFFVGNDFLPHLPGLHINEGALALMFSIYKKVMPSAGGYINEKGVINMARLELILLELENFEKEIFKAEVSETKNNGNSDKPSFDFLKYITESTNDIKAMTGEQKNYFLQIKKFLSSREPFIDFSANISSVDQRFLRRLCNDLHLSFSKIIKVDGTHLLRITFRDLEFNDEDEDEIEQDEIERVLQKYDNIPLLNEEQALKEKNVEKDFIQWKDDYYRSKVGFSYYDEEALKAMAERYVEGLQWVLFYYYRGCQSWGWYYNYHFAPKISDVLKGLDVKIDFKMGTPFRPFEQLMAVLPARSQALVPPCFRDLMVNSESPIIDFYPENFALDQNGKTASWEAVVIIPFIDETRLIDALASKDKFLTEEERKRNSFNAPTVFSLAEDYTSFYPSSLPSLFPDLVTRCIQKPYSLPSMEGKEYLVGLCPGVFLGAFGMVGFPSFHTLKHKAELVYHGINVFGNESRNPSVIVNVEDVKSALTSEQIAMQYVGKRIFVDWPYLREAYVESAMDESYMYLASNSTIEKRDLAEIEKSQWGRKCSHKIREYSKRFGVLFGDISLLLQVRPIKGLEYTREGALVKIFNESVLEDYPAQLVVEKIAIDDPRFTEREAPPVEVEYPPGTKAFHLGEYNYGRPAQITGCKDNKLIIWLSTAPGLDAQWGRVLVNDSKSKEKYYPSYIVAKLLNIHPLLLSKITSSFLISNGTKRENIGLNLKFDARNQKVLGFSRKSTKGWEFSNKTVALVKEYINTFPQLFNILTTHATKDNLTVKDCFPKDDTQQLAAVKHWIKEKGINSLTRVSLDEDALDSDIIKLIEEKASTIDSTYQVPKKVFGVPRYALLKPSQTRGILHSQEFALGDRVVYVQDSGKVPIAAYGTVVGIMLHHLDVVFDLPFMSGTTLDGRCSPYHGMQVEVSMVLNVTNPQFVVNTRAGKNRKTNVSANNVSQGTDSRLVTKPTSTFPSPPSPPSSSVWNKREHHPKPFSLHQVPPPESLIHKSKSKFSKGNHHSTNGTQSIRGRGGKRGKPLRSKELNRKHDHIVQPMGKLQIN

By UniProt entry, the sequences of proteins in these tests, tags left out. Where a name states a change or a piece, a line headed by the entry shows the natural chain unless it says otherwise.
UniProt Q09872: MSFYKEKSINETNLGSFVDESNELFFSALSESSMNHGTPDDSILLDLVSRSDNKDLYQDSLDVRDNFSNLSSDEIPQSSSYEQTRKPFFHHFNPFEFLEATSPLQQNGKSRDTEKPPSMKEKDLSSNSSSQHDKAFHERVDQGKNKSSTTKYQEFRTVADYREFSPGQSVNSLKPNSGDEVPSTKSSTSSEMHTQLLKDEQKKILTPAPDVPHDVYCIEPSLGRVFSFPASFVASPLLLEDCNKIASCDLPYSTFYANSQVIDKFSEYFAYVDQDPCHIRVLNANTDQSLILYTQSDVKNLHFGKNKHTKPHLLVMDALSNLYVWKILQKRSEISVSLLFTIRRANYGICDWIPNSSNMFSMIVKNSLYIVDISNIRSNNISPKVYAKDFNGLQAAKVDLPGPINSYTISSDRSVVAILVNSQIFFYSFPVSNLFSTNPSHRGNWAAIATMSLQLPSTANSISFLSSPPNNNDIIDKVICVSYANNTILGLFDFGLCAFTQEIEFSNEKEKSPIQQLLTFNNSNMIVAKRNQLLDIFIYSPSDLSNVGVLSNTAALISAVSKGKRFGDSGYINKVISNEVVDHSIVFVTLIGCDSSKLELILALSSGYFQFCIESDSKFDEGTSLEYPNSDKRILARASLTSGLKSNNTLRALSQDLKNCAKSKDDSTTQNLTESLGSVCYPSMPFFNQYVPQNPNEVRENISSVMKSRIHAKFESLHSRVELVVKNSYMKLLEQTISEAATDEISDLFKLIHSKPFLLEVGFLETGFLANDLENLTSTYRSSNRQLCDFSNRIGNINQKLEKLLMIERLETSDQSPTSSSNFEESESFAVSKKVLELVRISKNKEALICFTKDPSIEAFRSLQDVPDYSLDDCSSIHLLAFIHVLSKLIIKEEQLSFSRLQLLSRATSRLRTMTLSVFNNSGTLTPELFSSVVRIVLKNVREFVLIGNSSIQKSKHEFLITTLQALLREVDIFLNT

Eti1-TAP (S. pombe) = assay: as above

binding (Exo2-TAP (S. pombe)): binds
Molecule: Eti1-myc (from UniProt Q09872)

binding (Eti1-TAP (S. pombe)): binds
B1: Exo2-myc (protein, UniProt P40383 1-1328)
chain: T1 sequence

Reference: PMC4234486
